# From article PMC7819943, “Rice protein-binding microarrays: a tool to detect cis-acting elements near promoter regions in rice”
# Amino acid sequences for entries named in this document (tags omitted).
# UniProt Q0JBA9, entry or part of it: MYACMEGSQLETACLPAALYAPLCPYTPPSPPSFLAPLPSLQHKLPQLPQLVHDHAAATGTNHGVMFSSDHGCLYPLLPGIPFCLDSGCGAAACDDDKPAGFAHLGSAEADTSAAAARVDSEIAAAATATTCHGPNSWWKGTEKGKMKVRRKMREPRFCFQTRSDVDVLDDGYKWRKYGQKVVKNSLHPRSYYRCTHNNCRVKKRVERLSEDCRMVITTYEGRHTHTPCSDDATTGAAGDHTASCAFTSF
# This is one part of the list.
# Target: OsWRKY34 (Oryza sativa, UniProt Q0JBA9 1-250)
# Assay: protein-binding microarray (RPBM); PBS, 2% BSA, 51.3 ng/ul salmon testes DNA, 50 uM zinc acetate, 200 nM TF, 25 C, 1 h; high values mean tight binding
# Conditions: protein: recombinant; tags: N-terminal polyhistidine and DsRed monomer fusion (pET32a); label: CyDye5-dUTP incorporated in the synthesized complementary strand; 3' TTTTT single-stranded linker to array surface; dsDNA, one strand shown
# Outline: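 Binding signal is defined as the fluorescence intensity of each feature in arbitrary units, read on an Axon 4000B scanner. Transcription factors with N-terminal polyhistidine and DsRed fusions came from E. coli BL21-CodonPlus and were purified on Ni–NTA. They were incubated at 200 nM for 1 h at 25 °C on a custom Agilent array that had been made double-stranded with Cy5-dUTP, with 50 µM zinc acetate present, and the array was washed.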
row,Sequence,binding signal
1,ACGATCCCCGAGCCTCTCTCGCGCGCGTCCCGTCACGTCTCGGAGTCACCTAGTGCAG,11900 fluorescence intensity (a.u.)
2,ACAGCAACTCACTGCAGCTTAGCTCTCTTTCTCTCTTAGTCGGAGTCACCTAGTGCAG,8340 fluorescence intensity (a.u.)
3,GAACGTGATTATGTATTTTTGGCTTGCTAATTTTTGGCTTCGGAGTCACCTAGTGCAG,8600 fluorescence intensity (a.u.)
4,TATACCTCCTGCTGTTGCTCTTGTTCACTTGTGCTCACAGCGGAGTCACCTAGTGCAG,8770 fluorescence intensity (a.u.)
5,CCTCCTCCTCCGCACCCACATCCAGGCCGTCCCGCCGCGGCGGAGTCACCTAGTGCAG,9340 fluorescence intensity (a.u.)
6,ACCTCTCACCGCTCGCCAGCGCCTCCTCGTCCTCGCTGCTCGGAGTCACCTAGTGCAG,9910 fluorescence intensity (a.u.)
7,CCCAAGGTCAGACTGCTGCCAGCGTTCGCCTGTTCCCAAACGGAGTCACCTAGTGCAG,9570 fluorescence intensity (a.u.)
8,CGCTACTCATCTACTCTACTCTACTCCTCCATCAACCAAACGGAGTCACCTAGTGCAG,8480 fluorescence intensity (a.u.)
9,GCTCTAGCGCCGCCGCGCTTCCTCACGCCGGCTACCGGACCGGAGTCACCTAGTGCAG,8370 fluorescence intensity (a.u.)
10,GGGGCGGGGCGGCCGTGCTTACACATGTTGGCAACGCACGCGGAGTCACCTAGTGCAG,11600 fluorescence intensity (a.u.)
11,TTACCGACGCAGCCTCGCCTACACTACACCCTCGATCCTTCGGAGTCACCTAGTGCAG,11100 fluorescence intensity (a.u.)
12,TGGCCCTCTACTTCTTTTGCAAGGTCAGCTGCATCGATTCCGGAGTCACCTAGTGCAG,8370 fluorescence intensity (a.u.)
13,TTTGTCACGCGAATACTGTATTGTAGGGTGGGGTTCACTGCGGAGTCACCTAGTGCAG,12100 fluorescence intensity (a.u.)
14,AGAGCAGGTCGCCGGAACCTCTGCCTTCGACGTCCTGCACCGGAGTCACCTAGTGCAG,14200 fluorescence intensity (a.u.)
15,ACATGTGGGCCCCACATATTTATTTTTTTATTTTTTGCTGCGGAGTCACCTAGTGCAG,8380 fluorescence intensity (a.u.)
16,ATGTGGGTAGTGTCGAAAGTGTCGGCGACACGCTCCAGTGCGGAGTCACCTAGTGCAG,8410 fluorescence intensity (a.u.)
17,AACTCTGGCACGATTTTTTTTATTGCAGTTTTCGTCGGATCGGAGTCACCTAGTGCAG,11400 fluorescence intensity (a.u.)
18,CCACCACCGGCCTCGCCGCCGGCTCATCGGTTCTCGAGTACGGAGTCACCTAGTGCAG,8740 fluorescence intensity (a.u.)
19,TCCTCTCTGCGCGGCTACCCTCCTTCTCTCAAATCCGGATCGGAGTCACCTAGTGCAG,8070 fluorescence intensity (a.u.)
20,ATTTTATACCCTTATGATCGCCCTCATTCTCTCTCGCCTACGGAGTCACCTAGTGCAG,8840 fluorescence intensity (a.u.)
21,TTTGATTCCAACTTTTTTCTTCAAACTTTTAACTTTTCCGCGGAGTCACCTAGTGCAG,8020 fluorescence intensity (a.u.)

# Individual results from the list:
# binding signal, AGAGCAGGTCGCCGGAACCTCTGCCTTCGACGTCCTGCACCGGAGTCACCTAGTGCAG is entered as 14200 fluorescence intensity (a.u.)
# binding signal, TGGCCCTCTACTTCTTTTGCAAGGTCAGCTGCATCGATTCCGGAGTCACCTAGTGCAG is entered as 8370 fluorescence intensity (a.u.)
# binding signal, GGGGCGGGGCGGCCGTGCTTACACATGTTGGCAACGCACGCGGAGTCACCTAGTGCAG is entered as 11600 fluorescence intensity (a.u.)

# Going on with the list.

row,Sequence,binding signal
1,CGTGGGAACGAATCTTCTCACATGTTCGTGCGCCGTCACTCGGAGTCACCTAGTGCAG,8620 fluorescence intensity (a.u.)
2,CCTGCTGCCTATATTTGTCCAATTCGACACCGATCGATCACGGAGTCACCTAGTGCAG,8120 fluorescence intensity (a.u.)
3,ATTTGACGACCACCGTTATTTATGTCACCGGATTTGGCCACGGAGTCACCTAGTGCAG,8160 fluorescence intensity (a.u.)
4,GCTGTCACATCGGATGTTTGACCGGATGTCGGAAGGGGTTCGGAGTCACCTAGTGCAG,9670 fluorescence intensity (a.u.)
5,ATAAAAGTGAGAGTACCAACACACTCGGCGCGCTCTTGTACGGAGTCACCTAGTGCAG,8460 fluorescence intensity (a.u.)
6,TACCCCGCCGCCGCGTCCTAGATTGCCGCCGTTCCCTAAACGGAGTCACCTAGTGCAG,9920 fluorescence intensity (a.u.)
7,CCGTTCCGCGACGAGGTGCTCACGGCCACACATTTCTCCACGGAGTCACCTAGTGCAG,9040 fluorescence intensity (a.u.)
8,ATTTGTGTGTATGAAAAATGGGTCCCGCTCGTATTTCTTTCGGAGTCACCTAGTGCAG,9220 fluorescence intensity (a.u.)
9,AACTGCGCAGCTTTTCTGAGTTCTCTTCTTCCTTTTATTCCGGAGTCACCTAGTGCAG,11000 fluorescence intensity (a.u.)
10,CTTGAACTCTGGGTCCTTCACGTTTATGATTTGTTCAGATCGGAGTCACCTAGTGCAG,8050 fluorescence intensity (a.u.)
11,TTTGCAACATTTGATTACTCGTCTTATTTAATTTTTTTTTCGGAGTCACCTAGTGCAG,8230 fluorescence intensity (a.u.)
12,CTAAACAATATGCAAAGCCTTTGACCTGCTAGCCTTTTTTCGGAGTCACCTAGTGCAG,8870 fluorescence intensity (a.u.)
13,CATTTGCCTCTTGTTTTTTCACTTTAGCCGATATGAGTTTCGGAGTCACCTAGTGCAG,9220 fluorescence intensity (a.u.)
14,AGCCACATCATCAATATTTTTCTTATCATTAGATTGGATTCGGAGTCACCTAGTGCAG,8370 fluorescence intensity (a.u.)
15,TGAATTTGTGGTTTTTTTTGGGGAGGGTTTTTTTTTTCTTCGGAGTCACCTAGTGCAG,34600 fluorescence intensity (a.u.)
16,ACATATTTTTATACGTATATTGCCTTTTATATTGTGTACACGGAGTCACCTAGTGCAG,11500 fluorescence intensity (a.u.)
17,CTGCGAGTCCTCCTCCTCTTCTCGTCGCCGTGCTACTCTCCGGAGTCACCTAGTGCAG,8590 fluorescence intensity (a.u.)
18,TTTTACTACCGTACTTTGGAGCAGCTGTTTCTATATAGACCGGAGTCACCTAGTGCAG,9430 fluorescence intensity (a.u.)
19,CCTTGACTTGCACCTTTGACGGAGGCGCCATCTTCGCCGCCGGAGTCACCTAGTGCAG,11500 fluorescence intensity (a.u.)
20,TGCAGGTGGCTCTGTGTTCCGTTCTTGTTTTGTTCCGGTTCGGAGTCACCTAGTGCAG,10700 fluorescence intensity (a.u.)
21,TCTCTTGTGCCTCACTCACTTTCATTACTGGAGAGATATGCGGAGTCACCTAGTGCAG,9840 fluorescence intensity (a.u.)

row,Sequence,binding signal
1,TATCTTTAACTGTTGCAACGCATGGGTATTTTTTTCTAGTCGGAGTCACCTAGTGCAG,9050 fluorescence intensity (a.u.)
2,AAAAAAACTAGGACTCACTCCGTTTCACAATGTAAGTCATCGGAGTCACCTAGTGCAG,8330 fluorescence intensity (a.u.)
3,TACCACACAGCCAGCTCAGAATTTCCAACCTGAATTGCAACGGAGTCACCTAGTGCAG,8260 fluorescence intensity (a.u.)
4,GCCAGTACGTCATCCGCCAACTCATCCAAATTTGTGTTTACGGAGTCACCTAGTGCAG,14000 fluorescence intensity (a.u.)
5,ATCAGTATGGACTCTAGTTTCCTATTCATATATTCCTTATCGGAGTCACCTAGTGCAG,8280 fluorescence intensity (a.u.)
6,TCAGTCACACTCAACTTTATCAGCCCGTCAGGTCCATTGACGGAGTCACCTAGTGCAG,9050 fluorescence intensity (a.u.)
7,CCATGGGTATGGGTTTAGGCAAGGGGTGGGCGGCAGGGATCGGAGTCACCTAGTGCAG,15300 fluorescence intensity (a.u.)
8,CGGTGGACTGGTGGTTTTTGCGGGGTTGCAGAATTTGGTGCGGAGTCACCTAGTGCAG,9390 fluorescence intensity (a.u.)
9,TGCTTGACCGAAATTGGAGGTCACTGGGGCAATGCTAGCTCGGAGTCACCTAGTGCAG,9600 fluorescence intensity (a.u.)
10,GGTGGGAGTGCGCATTGAGGATAAGCCACTGATGACGTCTCGGAGTCACCTAGTGCAG,8600 fluorescence intensity (a.u.)
11,GGAACCCGCCAAGCGAAACACACCCTCTTCTCTTCGTCAACGGAGTCACCTAGTGCAG,8150 fluorescence intensity (a.u.)
12,TTCATAAGGTGGTGGGCTAGACGATCTGGGTTCGAAGTATCGGAGTCACCTAGTGCAG,8300 fluorescence intensity (a.u.)
13,TCTTTTTATAGTCACTTCCCTTTAGGAGTGTATTTATTATCGGAGTCACCTAGTGCAG,8550 fluorescence intensity (a.u.)
14,CGCTGTTCAGACGTTGACTCTCGTTGTTTTTATAGTTTTTCGGAGTCACCTAGTGCAG,14600 fluorescence intensity (a.u.)
15,TCCCAAAGGCCTCATTCGCTGCAGCTCACACACAACCTCTCGGAGTCACCTAGTGCAG,10600 fluorescence intensity (a.u.)
16,ATCAATATATTGCCGGCACAATTCGCACATATACTATATACGGAGTCACCTAGTGCAG,8640 fluorescence intensity (a.u.)
17,GTTGATTGTTCTGCTTATTGATGCTTAGATTTTTCCAATGCGGAGTCACCTAGTGCAG,9720 fluorescence intensity (a.u.)
18,GGGTGGAGCTGGTGTCGTTGCCGCGACCTCATTGGCTAAACGGAGTCACCTAGTGCAG,8040 fluorescence intensity (a.u.)
19,AGAGGGGCGGCGGTGGCGAGCCGGCGATGAACGCGAGGGGCGGAGTCACCTAGTGCAG,8130 fluorescence intensity (a.u.)
20,CTCCTTCCCGTCATTTTTTCATTTTCATTTTCATTTTCTGCGGAGTCACCTAGTGCAG,8620 fluorescence intensity (a.u.)
21,CCTATGTTTCTCGAGTAAGATCCTTTCTCCTATGTTAGTTCGGAGTCACCTAGTGCAG,9230 fluorescence intensity (a.u.)

# 3 entries drawn at random from those above:
row,Sequence,binding signal
1,TATCTTTAACTGTTGCAACGCATGGGTATTTTTTTCTAGTCGGAGTCACCTAGTGCAG,9050 fluorescence intensity (a.u.)
9,TGCTTGACCGAAATTGGAGGTCACTGGGGCAATGCTAGCTCGGAGTCACCTAGTGCAG,9600 fluorescence intensity (a.u.)
16,ATCAATATATTGCCGGCACAATTCGCACATATACTATATACGGAGTCACCTAGTGCAG,8640 fluorescence intensity (a.u.)

# Further records follow:

row,Sequence,binding signal
1,GATTTCTTCTTCTTGCTTTAGATTTCTTATCCTTCTTCTTCGGAGTCACCTAGTGCAG,8710 fluorescence intensity (a.u.)
2,AGAGTAGAGTCCCAACTCCTTTTGCCCTGTTGTTGTTATTCGGAGTCACCTAGTGCAG,8900 fluorescence intensity (a.u.)
3,TCACTACGAGGCTTTATTACTTCATTTTTGCAAAATTCCTCGGAGTCACCTAGTGCAG,13700 fluorescence intensity (a.u.)
4,ACACATCTCTTTTTGCAAGATCTCTTCTTGTTCATCATCTCGGAGTCACCTAGTGCAG,9420 fluorescence intensity (a.u.)
5,TCCCGCTCCCAATCCATTGCACTTCGCTCCTTCGAGCGCGCGGAGTCACCTAGTGCAG,10600 fluorescence intensity (a.u.)
6,GATTGAGGGGAATGTTCCATGTTTTGTTGAACTCTTTTCCCGGAGTCACCTAGTGCAG,9320 fluorescence intensity (a.u.)
7,TCTATTTACGTGTTCGTTCGTCGTCGCTCCCATCTCCACTCGGAGTCACCTAGTGCAG,9090 fluorescence intensity (a.u.)
8,CCCACGTCGCGCGCGCGCCTCCCATCGCCTGCCTATACATCGGAGTCACCTAGTGCAG,11000 fluorescence intensity (a.u.)
9,GGCTCCGGCCGCCGGCGCAACGGGTATTCTCATCCTCATTCGGAGTCACCTAGTGCAG,9800 fluorescence intensity (a.u.)
10,TTAATCCACTACATTTTTTTCTATCCATATAGGATTTTGACGGAGTCACCTAGTGCAG,8070 fluorescence intensity (a.u.)
11,CATGTCAGCAATCACTTTCCAATGCTTAACAATACCCACTCGGAGTCACCTAGTGCAG,8890 fluorescence intensity (a.u.)
12,TTGTATGCCTACTTGGACTTTTCTTTTCTTTTTTTTCTTTCGGAGTCACCTAGTGCAG,8690 fluorescence intensity (a.u.)
13,ATCACTTATATTCTCTCGTCTCATTTTAGTCGTTTACTAACGGAGTCACCTAGTGCAG,8390 fluorescence intensity (a.u.)
14,ATTGGGTGCTTCTTCCAACCCCATCAGCTTGGCAATGACACGGAGTCACCTAGTGCAG,8380 fluorescence intensity (a.u.)
15,AATGTTCCAGTGGTCTTCTTGTTTGGATTATACTGTATTGCGGAGTCACCTAGTGCAG,10700 fluorescence intensity (a.u.)
16,AACAGTAGGCCATTCTCATTCAGTTGTGTAACTATGTAACCGGAGTCACCTAGTGCAG,9180 fluorescence intensity (a.u.)
17,TGACGGGGTTTGGTCTCATCTTTCGTGGTCAGATTTGCCGCGGAGTCACCTAGTGCAG,8360 fluorescence intensity (a.u.)
18,CGGTTGACTTTTTTTTTCTAATAAGCCAAAACGGCTTATTCGGAGTCACCTAGTGCAG,18800 fluorescence intensity (a.u.)
19,GTGTGGGGCTTTTAACTTTTTGTCACTTTTAAATTTTAAACGGAGTCACCTAGTGCAG,21300 fluorescence intensity (a.u.)
20,ACCACTCTCTTCATCCCTAGCCTAATCATCCCTATCAACACGGAGTCACCTAGTGCAG,8790 fluorescence intensity (a.u.)
21,GTAGGGTCATGCTTATGTCTGTTCGATTGGATCTGGGATTCGGAGTCACCTAGTGCAG,9270 fluorescence intensity (a.u.)
